Measured values from ChEMBL document CHEMBL4316593 (Eur J Med Chem, 2019).
The source gives many values for each of these; only a part stands here.

Legend:
Type in all cases: cell-based
Details in all cases: U-87MG ATCC
[1] = Inhibition of RTK/PI3K/AKT/mTOR signaling in human U87 cells assessed as down regulation of CYR61 gene expression at cytotoxic IC50 measured after 48 hrs relative to control
[2] = Inhibition of RTK/PI3K/AKT/mTOR signaling in human U87 cells assessed as down regulation of EPDR1 gene expression at cytotoxic IC50 measured after 48 hrs relative to control
[3] = Inhibition of RTK/PI3K/AKT/mTOR signaling in human U87 cells assessed as down regulation of ZNF222 gene expression at cytotoxic IC50 measured after 48 hrs relative to control
[4] = Inhibition of RTK/PI3K/AKT/mTOR signaling in human U87 cells assessed as down regulation of OAS3 gene expression at cytotoxic IC50 measured after 48 hrs relative to control
[5] = Inhibition of RTK/PI3K/AKT/mTOR signaling in human U87 cells assessed as down regulation of SLC25A44 gene expression at cytotoxic IC50 measured after 48 hrs relative to control
[6] = Inhibition of RTK/PI3K/AKT/mTOR signaling in human U87 cells assessed as down regulation of IFFO2 gene expression at cytotoxic IC50 measured after 48 hrs relative to control
[7] = Inhibition of RTK/PI3K/AKT/mTOR signaling in human U87 cells assessed as down regulation of ENTPD7 gene expression at cytotoxic IC50 measured after 48 hrs relative to control
[8] = Inhibition of RTK/PI3K/AKT/mTOR signaling in human U87 cells assessed as down regulation of RANBP6 gene expression at cytotoxic IC50 measured after 48 hrs relative to control
[9] = Inhibition of RTK/PI3K/AKT/mTOR signaling in human U87 cells assessed as down regulation of CFL1 gene expression at cytotoxic IC50 measured after 48 hrs relative to control
[10] = Inhibition of RTK/PI3K/AKT/mTOR signaling in human U87 cells assessed as down regulation of ENC1 gene expression at cytotoxic IC50 measured after 48 hrs relative to control
[11] = Inhibition of RTK/PI3K/AKT/mTOR signaling in human U87 cells assessed as down regulation of TUBG1 gene expression at cytotoxic IC50 measured after 48 hrs relative to control
[12] = Inhibition of RTK/PI3K/AKT/mTOR signaling in human U87 cells assessed as down regulation of CHRNB1 gene expression at cytotoxic IC50 measured after 48 hrs relative to control
[13] = Inhibition of RTK/PI3K/AKT/mTOR signaling in human U87 cells assessed as down regulation of SCYL2 gene expression at cytotoxic IC50 measured after 48 hrs relative to control
[14] = Inhibition of RTK/PI3K/AKT/mTOR signaling in human U87 cells assessed as down regulation of ERAL1 gene expression at cytotoxic IC50 measured after 48 hrs relative to control
[15] = Inhibition of RTK/PI3K/AKT/mTOR signaling in human U87 cells assessed as down regulation of PSME4 gene expression at cytotoxic IC50 measured after 48 hrs relative to control
[16] = Inhibition of RTK/PI3K/AKT/mTOR signaling in human U87 cells assessed as down regulation of VCP gene expression at cytotoxic IC50 measured after 48 hrs relative to control
[17] = Inhibition of RTK/PI3K/AKT/mTOR signaling in human U87 cells assessed as down regulation of MYO10 gene expression at cytotoxic IC50 measured after 48 hrs relative to control
[18] = Inhibition of RTK/PI3K/AKT/mTOR signaling in human U87 cells assessed as down regulation of WBP1L gene expression at cytotoxic IC50 measured after 48 hrs relative to control
[19] = Inhibition of RTK/PI3K/AKT/mTOR signaling in human U87 cells assessed as down regulation of TAX1BP1 gene expression at cytotoxic IC50 measured after 48 hrs relative to control
[20] = Inhibition of RTK/PI3K/AKT/mTOR signaling in human U87 cells assessed as up regulation of NCMAP gene expression at cytotoxic IC50 measured after 48 hrs relative to control
[21] = Inhibition of RTK/PI3K/AKT/mTOR signaling in human U87 cells assessed as up regulation of TMEM52 gene expression at cytotoxic IC50 measured after 48 hrs relative to control
[22] = Inhibition of RTK/PI3K/AKT/mTOR signaling in human U87 cells assessed as up regulation of dynein axonemal assembly factor 3 gene expression at cytotoxic IC50 measured after 48 hrs relative to control
[23] = Inhibition of RTK/PI3K/AKT/mTOR signaling in human U87 cells assessed as up regulation of leucine zipper tumor suppressor 2 gene expression at cytotoxic IC50 measured after 48 hrs relative to control
[24] = Inhibition of RTK/PI3K/AKT/mTOR signaling in human U87 cells assessed as up regulation of ubiquitin like 4A gene expression at cytotoxic IC50 measured after 48 hrs relative to control
[25] = Inhibition of RTK/PI3K/AKT/mTOR signaling in human U87 cells assessed as up regulation of prolyl 4-hydroxylase subunit beta gene expression at cytotoxic IC50 measured after 48 hrs relative to control
[26] = Inhibition of RTK/PI3K/AKT/mTOR signaling in human U87 cells assessed as up regulation of protein disulfide isomerase family A member 5 gene expression at cytotoxic IC50 measured after 48 hrs relative to control
[27] = Inhibition of RTK/PI3K/AKT/mTOR signaling in human U87 cells assessed as up regulation of LARGE xylosyl- and glucuronyltransferase 2 gene expression at cytotoxic IC50 measured after 48 hrs relative to control
[28] = Inhibition of RTK/PI3K/AKT/mTOR signaling in human U87 cells assessed as up regulation of UL16 binding protein 1 gene expression at cytotoxic IC50 measured after 48 hrs relative to control
[29] = Inhibition of RTK/PI3K/AKT/mTOR signaling in human U87 cells assessed as up regulation of laminin subunit beta 1 gene expression at cytotoxic IC50 measured after 48 hrs relative to control
[30] = Inhibition of RTK/PI3K/AKT/mTOR signaling in human U87 cells assessed as up regulation of neuronal calcium sensor 1 gene expression at cytotoxic IC50 measured after 48 hrs relative to control
[31] = Inhibition of RTK/PI3K/AKT/mTOR signaling in human U87 cells assessed as up regulation of PVR gene expression at cytotoxic IC50 measured after 48 hrs relative to control
[32] = Inhibition of RTK/PI3K/AKT/mTOR signaling in human U87 cells assessed as up regulation of ANXA11 gene expression at cytotoxic IC50 measured after 48 hrs relative to control

For `CC(=O)C(=NNc1ccccc1C#N)C(C)=O`, the log2FC [1] was -1.97, the log2FC [2] was -1.76 and the log2FC [3] was -1.59. For the same compound, the log2FC [4] was -1.25, the log2FC [5] was -1.09 and the log2FC [6] was -0.997. The log2FC [7] was -0.854, the log2FC [8] was -0.799 and the log2FC [9] was -0.781. The log2FC [10] was -0.748, the log2FC [11] was -0.71 and the log2FC [12] was -0.661. The log2FC [13] was -0.631, the log2FC [14] was -0.603 and the log2FC [15] was -0.544. The log2FC [16] was -0.539, the log2FC [17] was -0.539 and the log2FC [18] was -0.509. It also gave a log2FC [19] of -0.439, a log2FC [20] of 2.53 and a log2FC [21] of 1.92. The log2FC [22] was 1.34, the log2FC [23] was 1.25 and the log2FC [24] was 0.996. For the same compound, the log2FC [25] was 0.972, the log2FC [26] was 0.938 and the log2FC [27] was 0.797. It also gave a log2FC [28] of 0.744, a log2FC [29] of 0.732 and a log2FC [30] of 0.689. For the same compound, the log2FC [31] was 0.442 and the log2FC [32] was 0.386.
